Some entries share one result that the patent states for a list of compounds. At least one structure is not confirmed: it was looked up by name or label, or the drawing left a doubt.
System: normal diploid human fibroblasts IMR90 cells
Test: Apoptosis by FACS analysis in normal IMR90 cells
Type: cell-based
Settings: SAHA 2.5 μM, TSA 300 nM; 48 h

SMILES	apoptosis [%]
O=C(CCCCCCC(=O)Nc1ccccc1)NO [SAHA, suberoylanilide hydroxamic acid]	< 10
CC(/C=C/C(=O)NO)=C\[C@@H](C)C(=O)c1ccc(N(C)C)cc1 [TSA, Trichostatin A]	< 10

Source: US20090137451A1, “Methods for Assessing Suitability of Cancer Patients for Treatment with Histone Deacetylase Inhibitors” (Agency for Science, Technology and Research, priority 2005, published 2009)
